Literature values as cited in US10160867B2, “Benzoxaborole-containing coating resistant to cellulose-supportable fungus” (THE PENN STATE RESEARCH FOUNDATION, priority 2015, dated 2018).
Some entries share one result that the patent states for a list of compounds. At least one compound was matched to its structure with a doubt left.

Conditions: range for the solubility group; cited from earlier work

Compound | water solubility (grouping of the Brown article) [mg/mL]
CCCCNC(=O)OCC#CI [IPBC, 3-Iodo-2-propynylbutylcarbamate] | 0.168 to 0.7
CN(C)C(=O)Nc1ccc(Cl)c(Cl)c1 [diuron] | 0.014 to 0.035
